In this assay the target is Flag-Nur77 (UniProt P22736). Nature of the assay: affinity purification with mass spectrometry; Flag-Nur77 transfected (293T in the methods, SMMC-7721 in the results), precipitated with anti-Flag antibody, eluted with 200 ug/ml Flag peptide, SDS-PAGE with silver staining, visible band cut out, trypsin, LC-MS.

The chains behind the UniProt entries cited, without tags or fusion partners.
UniProt P22736: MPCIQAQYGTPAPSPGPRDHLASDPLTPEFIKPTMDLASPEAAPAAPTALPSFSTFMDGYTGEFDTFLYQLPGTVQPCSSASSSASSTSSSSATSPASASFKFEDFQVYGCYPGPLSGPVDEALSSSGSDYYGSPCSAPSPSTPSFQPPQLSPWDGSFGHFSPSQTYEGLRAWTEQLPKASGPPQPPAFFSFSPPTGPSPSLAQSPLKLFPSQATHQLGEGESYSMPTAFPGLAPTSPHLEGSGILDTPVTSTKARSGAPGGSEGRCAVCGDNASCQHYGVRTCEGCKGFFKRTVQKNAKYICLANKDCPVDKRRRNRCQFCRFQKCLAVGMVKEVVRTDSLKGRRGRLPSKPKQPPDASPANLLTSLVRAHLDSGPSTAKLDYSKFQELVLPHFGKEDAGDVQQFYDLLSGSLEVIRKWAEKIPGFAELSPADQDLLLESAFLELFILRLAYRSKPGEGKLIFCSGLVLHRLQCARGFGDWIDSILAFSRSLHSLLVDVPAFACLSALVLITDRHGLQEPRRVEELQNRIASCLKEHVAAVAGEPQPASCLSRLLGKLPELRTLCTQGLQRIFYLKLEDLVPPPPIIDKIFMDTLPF
UniProt P35558: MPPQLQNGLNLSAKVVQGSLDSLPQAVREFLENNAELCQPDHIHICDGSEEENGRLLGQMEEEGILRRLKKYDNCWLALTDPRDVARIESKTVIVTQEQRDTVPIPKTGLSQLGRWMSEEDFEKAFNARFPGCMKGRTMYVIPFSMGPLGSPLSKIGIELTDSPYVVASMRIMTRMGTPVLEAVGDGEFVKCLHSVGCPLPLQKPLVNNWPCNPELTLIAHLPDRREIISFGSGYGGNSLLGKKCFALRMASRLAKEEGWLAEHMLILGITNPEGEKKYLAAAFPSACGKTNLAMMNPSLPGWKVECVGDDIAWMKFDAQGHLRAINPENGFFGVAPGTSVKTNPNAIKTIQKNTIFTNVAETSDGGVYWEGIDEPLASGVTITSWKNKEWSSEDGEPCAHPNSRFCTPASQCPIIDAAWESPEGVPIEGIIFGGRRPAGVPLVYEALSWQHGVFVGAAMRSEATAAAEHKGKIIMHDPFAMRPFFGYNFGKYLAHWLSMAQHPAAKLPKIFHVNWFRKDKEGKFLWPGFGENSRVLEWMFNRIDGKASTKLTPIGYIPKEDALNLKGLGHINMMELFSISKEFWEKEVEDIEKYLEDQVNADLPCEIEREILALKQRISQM

Results are given in words; binding and its absence hold for the method and conditions named. Binding seen in cells or lysates may run through a third protein. These calls come from enrichment with a bait or labelling near it, and not all partners need be listed.

In the case of “PEPCK1, endogenous (from UniProt P35558 1-622) (enzyme)”, the binding result is “binds”.

For the origin of these results see publication PMC5333363.
